The text below walks through data of the supplement of paper PMC8732350.

Counter-ions that a name gives are not always drawn. ± gives the standard deviation of the averaged measurements. This is one part of the list. This data set is noisy: repeats of one test often differ as much as different tests do.

The assay relates to A549. In words: surface PD-L1 immunofluorescence intensity relative to IFN-gamma-only control (ratio); higher = more PD-L1 expression. The note with it: 10 µM; exposure time 24 h; IFN-gamma 100 ng/mL.
Regarding `C[C@H]1C[C@@H]2[C@H]([C@@H](O)C[C@@]3(C)[C@H]2CC[C@]3(O)C(=O)CO)[C@@]2(C)C=CC(=O)C=C12` [Methylprednisolone, 6-alpha], the “surface PD-L1 immunofluorescence intensity” value was determined as 0.835.

Consider `CN(Cc1ccccc1)C(=O)[C@H](Cc1ccc2ccccc2c1)NC(=O)[C@@H]1CCCN1C(=O)Nc1ccccc1[N+](=O)[O-]`, for which the “surface PD-L1 immunofluorescence intensity” value stood at 0.943. Then `CC(=O)Nc1nc(C)c(-c2ccc(Cl)c(S(=O)(=O)NCCO)c2)s1`, with 0.98; and `CCCCN1CCCC1CNC(=O)c1cc(C#N)c2ccccc2c1OC` (configuration not stated) [Nafadotride], with 1.06; and `Nc1c(S(=O)(=O)O)cc(Nc2cccc3ccccc23)c2c1C(=O)c1ccccc1C2=O`, with 1.07. Then `OC[C@H]1O[C@@H](Oc2cc(O)cc(/C=C/c3ccc(O)cc3)c2)[C@H](O)[C@@H](O)[C@@H]1O` [Polydatin (Piceid)], with 1.12; and `COc1ccc(C2CNC(=O)C2)cc1OC1CCCC1` (configuration not stated) [Rolipram], with 1.01 ± 0.014. As to `CC(/C=C/c1cccc(Oc2ccc(F)cc2)c1)N(O)C(N)=O` (configuration not stated), the “surface PD-L1 immunofluorescence intensity” value turned out to be 0.944. Take `O=c1c(O)c(-c2ccc(O)cc2O)oc2cc(O)cc(O)c12` [Morin hydrate (Aurantica)]: the “surface PD-L1 immunofluorescence intensity” value stood at 0.952. With `CCOC(=O)[C@H](CCc1ccccc1)N[C@H]1CS[C@H](c2cccs2)CN(CC(=O)O)C1=O` [Temocapril HCl], the “surface PD-L1 immunofluorescence intensity” value was 1.13. `CCCCC(F)(F)[C@@]1(O)CC[C@H]2[C@@H](CC(=O)[C@@H]2CCCCCCC(=O)O)O1` [Lubiprostone (Amitiza)]: the “surface PD-L1 immunofluorescence intensity” value is 0.987. Take `Cc1ccc([N+](=O)[O-])cc1S(=O)(=O)N(C)C`: the “surface PD-L1 immunofluorescence intensity” value stood at 1.02. `O=S(=O)(O)c1cc(O)ccc1O` [Ethamsylate]: the “surface PD-L1 immunofluorescence intensity” value came out at 0.957. For the compound `Cc1c(O)c(=O)ccn1C` [Deferiprone], the “surface PD-L1 immunofluorescence intensity” value worked out at 0.881. As to `c1ccc([C@H]2CN3CCSC3=N2)cc1` [Levamisole hydrochloride], the “surface PD-L1 immunofluorescence intensity” value is 0.968.

With `CCC(=O)O[C@]1(C(=O)CCl)[C@@H](C)C[C@H]2[C@@H]3CCC4=CC(=O)C=C[C@]4(C)[C@@]3(F)[C@@H](O)C[C@@]21C` [Clobetasol propionate], the “surface PD-L1 immunofluorescence intensity” value amounted to 0.836.

Turning to `C=CC(=O)Nc1ccc2ncnc(Nc3cccc(Br)c3)c2c1`, the “surface PD-L1 immunofluorescence intensity” value worked out at 1.05. Consider `CC1Cc2ccccc2N1NC(=O)c1ccc(Cl)c(S(N)(=O)=O)c1` (configuration not stated) [Indapamide], for which the “surface PD-L1 immunofluorescence intensity” value came out at 0.989. `CO/N=C(\C(=O)N[C@@H]1C(=O)N2C(C(=O)O)=C(Cn3ccc(=N)n3CCO)CS[C@H]12)c1csc(N)n1` [Cefoselis sulfate]: the “surface PD-L1 immunofluorescence intensity” value is 1.04.

As to `COc1cc(/C=C(\C#N)C(N)=O)cc(CSc2nc3ccccc3s2)c1O`, the “surface PD-L1 immunofluorescence intensity” value is 0.931. As for `CCOCC(O)COc1ccc(NC(=O)CC[S+](C)C)cc1` (configuration not stated) [Suplatast tosylate], the “surface PD-L1 immunofluorescence intensity” value turned out to be 1.03.

`O=C(NCC(O)CO)c1c(I)c(C(=O)NCC(O)CO)c(I)c(N(CCO)C(=O)CO)c1I` (configuration not stated) [Ioversol]: the “surface PD-L1 immunofluorescence intensity” value was determined as 1.06. Turning to `CO/N=C(\C(=O)N[C@@H]1C(=O)N2C(C(=O)O)=C(COC(N)=O)CS[C@H]12)c1ccco1` [Cefuroxime sodium salt], the “surface PD-L1 immunofluorescence intensity” value is 1.08. On to `CN1CCN(CCOc2cc(OC3CCOCC3)c3c(Nc4c(Cl)ccc5c4OCO5)ncnc3c2)CC1` [Saracatinib (AZD0530)], for which the “surface PD-L1 immunofluorescence intensity” value came to 0.998. With `Nc1ccc(S(=O)(=O)Nc2ccnn2-c2ccccc2)cc1` [Sulfaphenazole], the “surface PD-L1 immunofluorescence intensity” value was found to be 0.88. Take `CCCCCCCCCCCCCCCC(=O)O[C@@H]1[C@@H](O)[C@@H](O)[C@@H]([C@H](NC(=O)[C@@H]2C[C@@H](CCC)CN2C)[C@H](C)Cl)O[C@@H]1SC` [Clindamycin palmitate HCl]: the “surface PD-L1 immunofluorescence intensity” value turned out to be 0.998. `Cc1cc(CC(=O)O)n(C)c1C(=O)c1ccc(Cl)cc1` [Zomepirac sodium salt]: the “surface PD-L1 immunofluorescence intensity” value was determined as 1. The figure for `O=C(O)C1=CCCNC1` [Guvacine hydrochloride] is 1.06; for `CC#CCOC(=O)C1=CCCN(C)C1` [Arecaidine but-2-ynyl ester tosylate] it is 0.942. For the compound `C[C@H](CCC(=O)O)[C@H]1CC[C@H]2[C@@H]3CC[C@@H]4C[C@H](O)CC[C@]4(C)[C@H]3C[C@H](O)[C@]12C` [Sodium Deoxycholic acid], the “surface PD-L1 immunofluorescence intensity” value is 0.888. As for `C[C@H](CCC(=O)O)[C@H]1CC[C@H]2[C@@H]3CC[C@@H]4C[C@H](O)CC[C@]4(C)[C@H]3C[C@H](O)[C@]12C` [Deoxycholic acid], the “surface PD-L1 immunofluorescence intensity” value is 1.06. `CC(C)=CCC/C(C)=C/CC/C(C)=C/CSCC(=O)O` [Farnesylthioacetic acid]: the “surface PD-L1 immunofluorescence intensity” value amounted to 1.09. `O=C1CC2(CCCC2)CC(=O)N1CCCCN1CCN(c2ncccn2)CC1` [Buspirone hydrochloride]: the “surface PD-L1 immunofluorescence intensity” value turned out to be 1 ± 0.025. Regarding `CC[C@H]1OC(=O)[C@H](C)[C@@H](O[C@H]2C[C@@](C)(OC)[C@@H](O)[C@H](C)O2)[C@H](C)[C@@H](O[C@@H]2O[C@H](C)C[C@H](N(C)C)[C@H]2O)[C@](C)(O)C[C@@H](C)[C@@H]2N[C@@H](COCCOC)O[C@H]([C@H]2C)[C@]1(C)O` [Dirithromycin], the “surface PD-L1 immunofluorescence intensity” value was 0.953. `Cc1cc(C)c(/C=C2\C(=O)Nc3ccccc32)[nH]1`: the “surface PD-L1 immunofluorescence intensity” value came to 0.978. As to `O=C(NOC[C@H](O)CO)c1ccc(F)c(F)c1Nc1ccc(I)cc1F`, the “surface PD-L1 immunofluorescence intensity” value stood at 0.956. `CC(C)c1cc(-c2ccc(F)c3ccccc23)nc(N)n1`: the “surface PD-L1 immunofluorescence intensity” value amounted to 1.08.

Take `Cc1c(F)cc(C(=O)NC2CC2)cc1-c1ccc(C(=O)NCC(C)(C)C)cn1` [Losmapimod]: the “surface PD-L1 immunofluorescence intensity” value was 0.947.

With `CNC(C)C1CCC(N)C(OC2C(N)CC(N)C(OC3OCC(C)(O)C(NC)C3O)C2O)O1` (configuration not stated) [Gentamycin sulfate (Gentacycol)], the “surface PD-L1 immunofluorescence intensity” value worked out at 0.953.

As to `Nc1nc(NCCc2ccc(O)cc2)nc2nc(-c3ccco3)nn12`, the “surface PD-L1 immunofluorescence intensity” value worked out at 1.12. As for `c1ccc(C(NCc2cccnc2)(c2ccccc2)c2ccccc2)cc1`, the “surface PD-L1 immunofluorescence intensity” value was 1.04. Turning to `Cc1cccc(C#Cc2ccccc2)n1` [MPEP hydrochloride], the “surface PD-L1 immunofluorescence intensity” value stood at 0.995. On to `N[C@H](C(=O)O)c1cc(O)cc(O)c1`, for which the “surface PD-L1 immunofluorescence intensity” value is 1.03.

`COC(=O)C1=C(C)NC(C)=C(C(=O)OCCSc2ccccc2)C1C` (configuration not stated): the “surface PD-L1 immunofluorescence intensity” value was 1.01.

With `C[C@H](O)C(=O)Nc1c(I)c(C(=O)NC(CO)CO)c(I)c(C(=O)NC(CO)CO)c1I` [Iopamidol], the “surface PD-L1 immunofluorescence intensity” value amounted to 1.01. `O=c1cc[nH]c(=S)[nH]1` [2-Thiouracil]: the “surface PD-L1 immunofluorescence intensity” value came out at 1.01. With `CC(C)CC(=O)N[C@H](C(=O)N[C@H](C(=O)N[C@@H](CC(C)C)[C@@H](O)CC(=O)N[C@@H](C)C(=O)N[C@@H](CC(C)C)[C@@H](O)CC(=O)O)C(C)C)C(C)C` [Pepstatin A], the “surface PD-L1 immunofluorescence intensity” value stood at 0.943 ± 0.041.

On to `Cc1ccc(Cl)c(Nc2ccccc2C(=O)O)c1Cl` [Meclofenamic acid sodium salt monohydrate], for which the “surface PD-L1 immunofluorescence intensity” value amounted to 0.9.

In the case of `C=C1/C(=C\C=C2/CCC[C@]3(C)[C@@H]([C@H](C)/C=C/[C@@H](O)C4CC4)CC[C@@H]23)C[C@@H](O)C[C@@H]1O` [Calcipotriene], the “surface PD-L1 immunofluorescence intensity” value was 1.01. For the compound `C=C1/C(=C\C=C2/CCC[C@]3(C)[C@@H]([C@H](C)/C=C/[C@@H](O)C4CC4)CC[C@@H]23)C[C@@H](O)C[C@@H]1O` [Calcipotriol], the “surface PD-L1 immunofluorescence intensity” value came out at 1.04. The figure for `O=C(NCCO[N+](=O)[O-])c1cccnc1` [Nicorandil] is 0.947 ± 0.059; for `CN(C)CCOc1ccc(/C(=C(/CCCl)c2ccccc2)c2ccccc2)cc1` [Toremifene] it is 1.05; for `CC(C(=O)O)c1ccc(N2Cc3ccccc3C2=O)cc1` (configuration not stated) [Indoprofen] it is 0.997. As for `Cc1cc(Nc2ncnc3ccc(-c4ccc(CNCCS(C)(=O)=O)o4)cc23)ccc1Oc1ccn2ncnc2c1` [HER2 Inhibitor 1], the “surface PD-L1 immunofluorescence intensity” value turned out to be 1.11. Consider `CC1=Nc2ccc(Cl)cc2S(=O)(=O)N1` [Diazoxide], for which the “surface PD-L1 immunofluorescence intensity” value amounted to 0.87 ± 0.13. Take `Cc1cc(/C(=C/Nc2ccc(Cl)cc2)C(=O)Nc2ccc(Cl)cc2)on1`: the “surface PD-L1 immunofluorescence intensity” value turned out to be 1.01.

Turning to `CCCC(CCC)C(=O)NO` [Valproic acid hydroxamate], the “surface PD-L1 immunofluorescence intensity” value stood at 0.921.

In the case of `C[C@H]1C[C@H]2[C@@H]3CCC4=CC(=O)C=C[C@]4(C)[C@@]3(F)[C@@H](O)C[C@]2(C)[C@@]1(O)C(=O)CO` [Betamethasone], the “surface PD-L1 immunofluorescence intensity” value was determined as 0.8. Turning to `CNC(=O)[C@H](Cc1c[nH]c2ccccc12)NC(=O)[C@@H](CC(=O)NO)CC(C)C`, the “surface PD-L1 immunofluorescence intensity” value is 1. Then `COc1cc2nccc(Oc3ccc(NC(=O)C4(C(=O)Nc5ccc(F)cc5)CC4)cc3)c2cc1OC` [XL-184 free base (Cabozantinib)], with 0.995; and `O=C(O)/C=C/c1ccc(Cn2ccnc2)cc1` [Ozagrel hydrochloride], with 1.06; and `CCCc1nc(C)c2c(=O)nc(-c3cc(S(=O)(=O)N4CCN(CC)CC4)ccc3OCC)[nH]n12` [Vardenafil Hydrochloride Trihydrate (Vivanza)], with 1.01. Take `CCCc1nc(C)c2c(=O)nc(-c3cc(S(=O)(=O)N4CCN(CC)CC4)ccc3OCC)[nH]n12` [Vardenafil]: the “surface PD-L1 immunofluorescence intensity” value was 1.08.

For the compound `CNC(=O)c1cc(COc2nnc(Nc3ccc(Cl)cc3)c3ccoc23)ccn1` [Telatinib (BAY 57-9352)], the “surface PD-L1 immunofluorescence intensity” value was 1.01. Turning to `O=c1c(-c2ccc(O)cc2)coc2c([C@@H]3O[C@H](CO)[C@@H](O)[C@H](O)[C@H]3O)c(O)ccc12` [Puerarin (Kakonein)], the “surface PD-L1 immunofluorescence intensity” value came to 1.09. Then `CCn1nc(C(=O)O)c(=O)c2cc3c(cc21)OCO3` [Cinoxacin], with 0.941. As to `CCCCN1CCC(CCC(=O)c2cc(Cl)c(N)cc2OC)CC1`, the “surface PD-L1 immunofluorescence intensity” value turned out to be 1.05. As for `COCCOC(=O)C1=C(C)NC(C)=C(C(=O)OC/C=C/c2ccccc2)C1c1cccc([N+](=O)[O-])c1` (configuration not stated) [Cilnidipine], the “surface PD-L1 immunofluorescence intensity” value came out at 1.04. Then `CCOc1nc2cccc(C(=O)O)c2n1Cc1ccc(-c2ccccc2-c2noc(=O)[nH]2)cc1` [Azilsartan (TAK-536)], with 0.957. Consider `O=C1c2ccccc2C(Cc2ccnc(F)c2)(Cc2ccnc(F)c2)c2ccccc21`, for which the “surface PD-L1 immunofluorescence intensity” value stood at 0.867. Regarding `Cc1cc([C@@H](C)Nc2ccccc2C(=O)O)c2nc(N3CCOCC3)cc(=O)n2c1`, the “surface PD-L1 immunofluorescence intensity” value stood at 1.03. As to `CCCCNc1ccc(C(=O)OCCOCCOCCOCCOCCOCCOCCOCCOCCOC)cc1` [Benzonatate], the “surface PD-L1 immunofluorescence intensity” value is 0.903.
